Measured values: patent US7811989 (dated 2010)

Assay: general procedure: Fmoc solid-phase peptide synthesis; Rink Amide MBHA resin (0.72 mmol/g) for peptide amides; Wang resin (0.5 mmol/g) for peptide acids; HBTU/HOBT/DIEA in NMP
Conditions: whole synthesis, analytical HPLC, scale of the general procedure 0.25 mmol

Row | Substance | final HPLC purity [%]
1 | Ac-[A6c^28]hPYY(22-36)NH2 | 99.9
2 | [Aib^22]hPYY(3-36)NH2 | 97.7
3 | Ac-(3Pal^26, Leu^31)hPPY(24-36)NH2 | 97.2
4 | Ac-[A6c^31]hPYY(22-36)NH2 | 99.9
5 | Ac-[A6C^24, Leu^31]hPYY(24-36)NH2 | 98.8
6 | Ac-(Taz^26, Leu^31)hPPY(24-36)NH2 | 97.9
7 | Ac-[A6C^31]hPYY(24-36)NH2 | 96.3
8 | Ac-[A5C^22]hPYY(22-36)NH2 | 99.9
9 | Ac-(2Pal^26, Leu^31)hPPY(24-36)NH2 | 94.8
10 | [Taz^26]hPYY(3-36)NH2 | 95.6
11 | Ac-[4Pal^26]hPYY(22-36)NH2 | 99.9
12 | Ac-(4Pal^26, Leu^31)hPPY(24-36)NH2 | 97.0
13 | Ac-[A6c^30]hPYY(22-36)NH2 | 99.0
14 | Ac-[D2Pal^26]hPYY(22-36)NH2 | 96.0
15 | Ac-[A6C^28, Leu^31]hPYY(24-36)NH2 | 97.5
16 | Ac-[A6C^24]hPYY(22-36)NH2 | 99.9
17 | Ac-[2Pal^26]hPYY(22-36)NH2 | 99.6
18 | [A6C^24]hPYY(3-36)NH2 | 96.5
19 | Ac-[3Pal^26]hPYY(22-36)NH2 | 99.0
20 | [A6C^28]hPYY(3-36)NH2 | 96.8
21 | [3Pal^26]hPYY(3-36)NH2 | 99.9
22 | [Apc^35]hPYY(3-36)NH2 | 94.1
23 | Ac-[A5c^31]hPYY(22-36)NH2 | 99.9
24 | [A6C^30]hPYY(3-36)NH2 | 99.9
25 | Ac-[Taz^26]hPYY(22-36)NH2 | 97.9

Assay: general procedure: Fmoc solid-phase peptide synthesis; Rink Amide MBHA; HBTU/HOBT/DIEA in NMP
Conditions: whole synthesis, analytical HPLC, scale 0.25 mmol

Row | Substance | final HPLC purity
26 | [A5C^31]hPYY(3-36)NH2 | approximately 97.6%
